# Data as given in the supplement of paper PMC3334620.
# The full ranking holds about 33,000 sequences; the median of “E-score (-0.5 to 0.5)” is about -8e-05, and the highest 2% start at about 0.23. The list shows a part of the results.
# Target: T1, Nrg2 (UniProt P38082)
# T1 sequence: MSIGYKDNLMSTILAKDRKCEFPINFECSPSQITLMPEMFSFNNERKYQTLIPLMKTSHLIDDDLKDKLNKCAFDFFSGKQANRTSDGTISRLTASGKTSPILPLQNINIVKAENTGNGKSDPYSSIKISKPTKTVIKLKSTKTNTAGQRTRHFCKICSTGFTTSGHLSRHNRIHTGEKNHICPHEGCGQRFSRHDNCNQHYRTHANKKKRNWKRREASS
# Test: PBM E-score (8-mer binding enrichment) (E-score (-0.5 to 0.5)); higher = stronger / more preferred TF binding
# Conditions: protein concentration: 100 nM; construct: GST-full length
# Summary of the method: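 For each ungapped eight-base word taken together with its reverse complement, the Universal PBM Analysis Suite assigned an E-score. Binding data came from GST-tagged yeast transcription factors, applied at about 100-200 nM, on universal all-10-mer Agilent arrays made double-stranded by primer extension. Fluorescent anti-GST marked bound protein, and scans were normalised with masliner.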
row,Sequence,PBM E-score
1,AAGAGCTT,-0.0877
2,GTAACGGA,0.0938
3,GTAAGGAC,-0.044
4,ACAGGACG,-0.108
5,GTTTAAAC,-0.0462
6,AATACTAC,0.0385
7,ACGCTATC,0.0664
8,AGTAGACG,-0.0233
9,GAAGTGTA,-0.109
10,CCTCCGTC,-0.174
11,ATACTATC,0.013
12,GCGTGCCA,-0.097
13,GATTCCAA,0.113
14,CCCAGGAC,-0.142
15,CGTGTAAG,0.0529
16,TATGACCA,-0.0888
17,GCTCGTCA,0.0452
18,GGCTAACC,-0.235
19,GAAGAAAC,0.11
20,CTAATGTA,-0.0193
21,ACAGCTAC,-0.00789
22,AAACTAAA,0.168
23,TAACCACA,-0.0254
24,GTAGGTAA,0.00715

row,Sequence,PBM E-score
1,ATAACGCA,-0.0126
2,CATCGCTA,0.0214
3,TGTAAACA,-0.0786
4,CCGGAAAG,0.00592
5,CGGGAAAG,-0.107
6,ACGGTCAT,0.0704
7,CTTCTGTC,0.0795
8,CTCTGACC,-0.127
9,CGCATTTC,0.135
10,ACATGTAC,-0.004
11,ACCCATGA,-0.0351
12,GCATACCA,-0.0473
13,ACCCCCGA,-0.302
14,TGGATCAA,0.00272
15,ACGGATGC,0.0854
16,CCAAATCA,0.0327
17,CACGGAGC,-0.0377
18,GGGAACTA,0.0777
19,GGACGTAA,-0.0443
20,GATGAAGA,-0.0527
21,AGAGTGGC,0.00048
22,GGCTCCAA,-0.196
23,ATCGCATC,0.152
24,GAGCCCGC,-0.0724

row,Sequence,PBM E-score
1,AGTCTGTA,-0.183
2,CAGTCGAC,0.137
3,ATAGACCC,0.218
4,ACGGAACA,0.0339
5,CAAGCTTC,-0.12
6,ACCGGCTG,-0.192
7,CTTACTGC,0.0442
8,GTTATCAA,0.0558
9,CATACCCC,-0.0132
10,GCGACGTA,-0.0386
11,ACCGCGAA,0.153
12,CCAATAAC,0.0775
13,GCCCCTCA,-0.0656
14,GGTCATAC,-0.0955
15,AACGTGAA,-0.112
16,CTTATGGA,-0.157
17,ATCAGCGA,-0.00809
18,ATGATGGA,0.0454
19,ATCGATCG,0.16
20,AATAGCTC,-0.0691
21,CGACACGC,0.0115
22,CAGGCTGG,-0.153
23,CTAATCCC,0.0443
24,AAGCACAC,-0.0731

row,Sequence,PBM E-score
1,CTATCGGA,-0.00722
2,ATCCCGGC,0.00208
3,AAAGCGCG,0.0719
4,AAGTCTGC,-0.306
5,GCAATATA,0.125
6,ATTTCCGA,0.054
7,TGTTTCAA,0.00964
8,CTAGACCC,-0.028
9,AACAAAGA,0.00136
10,AAACAGCA,0.0258
11,CTGTGCGA,0.0414
12,CTGGAGTA,0.0654
13,CGTGAGTC,-0.178
14,CGCCCATC,-0.0023
15,GCTACGGA,-0.247
16,CAACACGC,-0.0143
17,AGACTTCG,-0.091
18,ACCCCCAA,-0.281
19,ACGCCTAA,-0.0589
20,AGTTCTGC,0.0858
21,AAACCTCC,-0.115
22,ACTAATAA,0.182
23,CGCGTACG,0.0886
24,ATGGGCTC,0.0622

row,Sequence,PBM E-score
1,ACTCCGAT,-0.0257
2,CGATCTAG,-0.0397
3,AGACCTTG,-0.0794
4,GAGTCAAA,-0.198
5,AGCTAAGA,0.0244
6,ACTGTTGC,0.0652
7,GCCGACCC,-0.145
8,ACGTCATC,-0.0886
9,CATTCTCG,-0.00943
10,CCATGGGC,-0.00676
11,CACATAAA,0.0485
12,ATTGATAC,0.274
13,CAACACTC,0.115
14,GGTGTGAC,-0.218
15,GCCGTGTA,-0.0106
16,TAGTCAGA,-0.159
17,CGCCCATA,0.0857
18,GTCGAGAC,0.112
19,TTGCCCAA,-0.116
20,CGTCGTAG,-0.0873
21,CGAGCGAA,0.0827
22,CTGAACTA,-0.0495
23,AGTCCGTG,-0.0911
24,CCTTGACC,-0.0242

# 7 entries picked at random from those above, as already listed:
row,Sequence,PBM E-score
12,ATTGATAC,0.274
8,ACGTCATC,-0.0886
1,ACTCCGAT,-0.0257
9,CATTCTCG,-0.00943
6,ACTGTTGC,0.0652
22,CTGAACTA,-0.0495
21,CGAGCGAA,0.0827

# As entered above.
# GGACGTAA | PBM E-score: -0.0443
# ACTGTTGC | PBM E-score: 0.0652
# ATAGACCC | PBM E-score: 0.218
# TGTTTCAA | PBM E-score: 0.00964

# Next part:

row,Sequence,PBM E-score
1,GGCGAGAA,0.16
2,GAGGGTCC,0.282
3,AACTCATG,0.0897
4,CGTATGTA,-0.034
5,TACTCACA,0.0727
6,ACGGCACG,-0.23
7,AATTGCAG,0.11
8,ACCCAGCC,-0.261
9,CATGATCC,-0.125
10,GCGCCGAA,0.0375
11,TAGTTAAA,0.123
12,GGCGGTCA,-0.163
13,AAAGCCGA,-0.182
14,CCTACCTA,-0.193
15,CCGTGGGA,-0.176
16,CAGAGCCC,-0.0162
17,TGAATTCA,0.167
18,AGATGTTA,-0.147
19,GGACATCA,0.0631
20,AAAAAGTT,-0.0781
21,AGATATGA,0.218
22,AAACGCCT,-0.314
23,CAGATACG,-0.0437
